Reference: paper PMC12477439
Results are given in words; binding and its absence hold for the method and conditions named. In cells and extracts the contact can be indirect. Binding calls can cover weak binding; strength is not graded here.

Columns and labels:
Assay in all cases: co-IP; HA-tagged E1s and FLAG-tagged E2s expressed in vivo; the E2s pulled down the E1s; details in the Supporting Information
[1] = target: FLAG-tagged SlUBC32 (tomato (Solanum lycopersicum)) (UniProt K4DHV2)
[2] = target: FLAG-tagged SlUBC34 (tomato (Solanum lycopersicum)) (UniProt K4C741)
[3] = target: FLAG-tagged SlUBC33 (tomato (Solanum lycopersicum)) (UniProt K4BN65)

Measured: binding

HA-tagged SlUBA1 (Solanum lycopersicum ubiquitin-activating enzyme 1) (from UniProt A0A3Q7GMH0)
binds: all assays above

HA-tagged SlUBA2 (Solanum lycopersicum ubiquitin-activating enzyme 2) (from UniProt A0A3Q7I083)
binds: all assays above
